Experimental data from patent publication US20260258004A1, “CRYSTALLINE FORMS OF (6S)-5-[4'-FLUORO-2-(TRIFLUOROMETHYL)BIPHENYL-4-YL]-6-METHYL-3,6- DIHYDRO-2H-l,3,4-OXADIAZIN-2-ONE” (Bayer Aktiengesellschaft, priority 2022, published 2026).
Further values from the same series stand in other lists.

Experiment: Particle size distribution by laser diffraction (Malvern Panalytical Mastersizer 3000, Fraunhofer)
Format: physicochemical
Experimental: The particle size distribution was measured by laser diffraction using the Malvern Panalytical Mastersizer 3000.
The samples are again taken from example 1.6 (probe 1) and example 1.5 (probe 2), the same as used in example 4.
The sample to be analyzed is dispersed in 1 drop of Tween 80 the sample is processed according to ISO13320.
Laser diffraction is an often-used method for determination the particle size of dispersed solid materials. A widened laser beam illuminates a cuvette which contains part of the particles. By diffraction on the particles a characteristic pattern can be mapped on the detector. The resulting diffraction image is the additive overlaying of diffraction images of all particles.
Besides the mentioned detector two additional detectors are mounted in order to detect diffraction light in forward direction (FA1,9), in wide angle (LA1,2) and in back direction (BS1,2). The turbidity of the sample is measured by an extinction sensor. This is necessary to ensure a low particle concentration which is necessary to avoid wrong results by multiple diffraction of light at several particles.
The cuvette used was a wet unit where the suspension is pumped in a closed circuit with a dispersing unit that ensures a separation of single particles by shear forces.
The measurement range of the Malvern 3000 covers a particle size from 1 mm (2 mm) down to 20 nm
The calculation of the particle size distribution from the diffraction patterns was done on basis of theory of Fraunhofer.
This assumption is valid for particle sizes of 10 to 50 μm and above. For smaller particles the light scattering of the particle itself due to optical transparency must be considered which is done in the Mie-theory (not used for our probes). Precondition of the application of the Mie-theory is the knowledge of the refractive and absorption index of the dispersed solids.
Q3 is the cumulative volume distribution, e.g. D50=Q(50%) indicates 50% of the volume part of the sample is smaller than particle size of 50 μm.
The particle size is expressed as an equivalent diameter used in the method recommended by the Malvern Analysis Program and as described in ISO13320.

With `C[C@@H]1OC(=O)NN=C1c1ccc(-c2ccc(F)cc2)c(C(F)(F)F)c1` [polymorph C, (6S)-5-[4′-Fluoro-2-(trifluoromethyl)biphenyl-4-yl]-6-methyl-3,6-dihydro-2H-1,3,4-oxadiazin-2-one] the “Cumulative volume distribution Q” value (particle size D 0.0463 μm, 300 s US) was 0%, the “Cumulative volume distribution Q” value (particle size D 0.0463 μm, without US) was 0% and the “Cumulative volume distribution Q” value (particle size D 0.0526 μm, 300 s US) was 0%. The “Cumulative volume distribution Q” value (particle size D 0.0526 μm, without US) was 0%, the “Cumulative volume distribution Q” value (particle size D 0.0597 μm, 300 s US) was 0% and the “Cumulative volume distribution Q” value (particle size D 0.0597 μm, without US) was 0%. The “Cumulative volume distribution Q” value (particle size D 0.0679 μm, 300 s US) was 0%, the “Cumulative volume distribution Q” value (particle size D 0.0679 μm, without US) was 0% and the “Cumulative volume distribution Q” value (particle size D 0.0771 μm, 300 s US) was 0%. The “Cumulative volume distribution Q” value (particle size D 0.0771 μm, without US) was 0%, the “Cumulative volume distribution Q” value (particle size D 0.0876 μm, 300 s US) was 0% and the “Cumulative volume distribution Q” value (particle size D 0.0876 μm, without US) was 0%. For the same molecule, the “Cumulative volume distribution Q” value (particle size D 0.0995 μm, 300 s US) was 0%, the “Cumulative volume distribution Q” value (particle size D 0.0995 μm, without US) was 0% and the “Cumulative volume distribution Q” value (particle size D 0.113 μm, 300 s US) was 0%. For the same molecule, the “Cumulative volume distribution Q” value (particle size D 0.113 μm, without US) was 0%, the “Cumulative volume distribution Q” value (particle size D 0.128 μm, 300 s US) was 0% and the “Cumulative volume distribution Q” value (particle size D 0.128 μm, without US) was 0%. The “Cumulative volume distribution Q” value (particle size D 0.146 μm, 300 s US) was 0%, the “Cumulative volume distribution Q” value (particle size D 0.146 μm, without US) was 0% and the “Cumulative volume distribution Q” value (particle size D 0.166 μm, 300 s US) was 0%. For the same molecule, the “Cumulative volume distribution Q” value (particle size D 0.166 μm, without US) was 0%, the “Cumulative volume distribution Q” value (particle size D 0.188 μm, 300 s US) was 0% and the “Cumulative volume distribution Q” value (particle size D 0.188 μm, without US) was 0%. The “Cumulative volume distribution Q” value (particle size D 0.214 μm, 300 s US) was 0%, the “Cumulative volume distribution Q” value (particle size D 0.214 μm, without US) was 0% and the “Cumulative volume distribution Q” value (particle size D 0.243 μm, 300 s US) was 0%. The “Cumulative volume distribution Q” value (particle size D 0.243 μm, without US) was 0%, the “Cumulative volume distribution Q” value (particle size D 0.276 μm, 300 s US) was 0% and the “Cumulative volume distribution Q” value (particle size D 0.276 μm, without US) was 0%. The “Cumulative volume distribution Q” value (particle size D 0.314 μm, 300 s US) was 0%, the “Cumulative volume distribution Q” value (particle size D 0.314 μm, without US) was 0% and the “Cumulative volume distribution Q” value (particle size D 0.357 μm, 300 s US, listed as Porbe2) was 0%. The “Cumulative volume distribution Q” value (particle size D 0.357 μm, without US) was 0%, the “Cumulative volume distribution Q” value (particle size D 0.405 μm, 300 s US, listed as Porbe2) was 0% and the “Cumulative volume distribution Q” value (particle size D 0.405 μm, without US) was 0%. For the same molecule, the “Cumulative volume distribution Q” value (particle size D 0.46 μm, 300 s US, listed as Porbe2) was 0%, the “Cumulative volume distribution Q” value (particle size D 0.46 μm, without US) was 0% and the “Cumulative volume distribution Q” value (particle size D 0.523 μm, 300 s US, listed as Porbe2) was 0%. The “Cumulative volume distribution Q” value (particle size D 0.523 μm, without US) was 0%, the “Cumulative volume distribution Q” value (particle size D 0.594 μm, 300 s US, listed as Porbe2) was 0.08% and the “Cumulative volume distribution Q” value (particle size D 0.594 μm, without US) was 0%. For the same molecule, the “Cumulative volume distribution Q” value (particle size D 0.675 μm, 300 s US, listed as Porbe2) was 0.2%, the “Cumulative volume distribution Q” value (particle size D 0.675 μm, without US) was 0% and the “Cumulative volume distribution Q” value (particle size D 0.767 μm, 300 s US, listed as Porbe2) was 0.33%. For the same molecule, the “Cumulative volume distribution Q” value (particle size D 0.767 μm, without US) was 0%, the “Cumulative volume distribution Q” value (particle size D 0.872 μm, 300 s US, listed as Porbe2) was 0.5% and the “Cumulative volume distribution Q” value (particle size D 0.872 μm, without US) was 0%. For the same molecule, the “Cumulative volume distribution Q” value (particle size D 0.991 μm, 300 s US, listed as Porbe2) was 0.67%, the “Cumulative volume distribution Q” value (particle size D 0.991 μm, without US) was 0% and the “Cumulative volume distribution Q” value (particle size D 1.13 μm, 300 s US, listed as Porbe2) was 0.86%. For the same molecule, the “Cumulative volume distribution Q” value (particle size D 1.13 μm, without US) was 0%, the “Cumulative volume distribution Q” value (particle size D 1.28 μm, 300 s US, listed as Porbe2) was 1.04% and the “Cumulative volume distribution Q” value (particle size D 1.28 μm, without US) was 0%. The “Cumulative volume distribution Q” value (particle size D 1.45 μm, 300 s US, listed as Porbe2) was 1.21%, the “Cumulative volume distribution Q” value (particle size D 1.45 μm, without US) was 0% and the “Cumulative volume distribution Q” value (particle size D 1.65 μm, 300 s US, listed as Porbe2) was 1.37%. The “Cumulative volume distribution Q” value (particle size D 1.65 μm, without US, listed as Probe 2) was 0%, the “Cumulative volume distribution Q” value (particle size D 1.88 μm, 300 s US, listed as Porbe2) was 1.52% and the “Cumulative volume distribution Q” value (particle size D 1.88 μm, without US, listed as Probe 2) was 0%. The “Cumulative volume distribution Q” value (particle size D 2.13 μm, 300 s US, listed as Porbe2) was 1.67%, the “Cumulative volume distribution Q” value (particle size D 2.13 μm, without US, listed as Probe 2) was 0% and the “Cumulative volume distribution Q” value (particle size D 2.42 μm, 300 s US, listed as Porbe2) was 1.83%. For the same molecule, the “Cumulative volume distribution Q” value (particle size D 2.42 μm, without US, listed as Probe 2) was 0%, the “Cumulative volume distribution Q” value (particle size D 2.75 μm, 300 s US, listed as Porbe2) was 2.02% and the “Cumulative volume distribution Q” value (particle size D 2.75 μm, without US, listed as Probe 2) was 0%. For the same molecule, the “Cumulative volume distribution Q” value (particle size D 3.12 μm, 300 s US, listed as Porbe2) was 2.24%, the “Cumulative volume distribution Q” value (particle size D 3.12 μm, without US, listed as Probe 2) was 0% and the “Cumulative volume distribution Q” value (particle size D 3.55 μm, 300 s US, listed as Porbe2) was 2.49%. The “Cumulative volume distribution Q” value (particle size D 3.55 μm, without US, listed as Probe 2) was 0%, the “Cumulative volume distribution Q” value (particle size D 4.03 μm, 300 s US, listed as Porbe2) was 2.8% and the “Cumulative volume distribution Q” value (particle size D 4.03 μm, without US, listed as Probe 2) was 0%. For the same molecule, the “Cumulative volume distribution Q” value (particle size D 4.58 μm, 300 s US, listed as Porbe2) was 3.16%, the “Cumulative volume distribution Q” value (particle size D 4.58 μm, without US, listed as Probe 2) was 0% and the “Cumulative volume distribution Q” value (particle size D 5.21 μm, 300 s US, listed as Porbe2) was 3.57%. The “Cumulative volume distribution Q” value (particle size D 5.21 μm, without US, listed as Probe 2) was 0%.
